# PubChem BioAssay AID1224829, NIAID | 2016
# Assay: 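Genes needed for LPS-driven NF-kappaB p65 nuclear entry in mouse macrophages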 (follow-up of hits)
# System: mouse RAW264.7 G9 macrophage reporter cells
# Knock-down reagent: single siRNA against mouse genes, 100 nM
# Duration: 2 days of siRNA knock-down, then 40 min of LPS before fixing
# Conditions: LPS (Salmonella minnesota R595) at 10 ng/ml
# Measurement: 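Imaging of GFP-p65 after 40 min of LPS; nuclear over perinuclear ring intensity ratio, scaled to plate median and non-targeting control wells, given as z-score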
# Direction: p65 translocation z-score and gene median z-score, per vendor: higher = more nuclear NF-kappaB p65 after LPS
# Hit rule: 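Active means the replicate-mean z-score lies beyond plus or minus 2, in either direction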
# Meaning of the calls: active = changed p65 translocation (either direction); inactive = no clear change
# Here is a random part of about 3,800 reagents tested. 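Calls cover raised and lowered translocation; gene median uses one vendor's three siRNAs; qiagen siRNAs acted more weakly than ambion siRNAs.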 The numbers tell different reagents against one gene apart.
gene,siRNA no.,siRNA vendor or control pool,"p65 translocation z-score, replicate mean","p65 translocation z-score, replicate 1","p65 translocation z-score, replicate 2","gene median z-score, per vendor",activity call
Or52e15 (olfactory receptor family 52 subfamily E member 15),1,ambion single siRNA,1.43,2.42,0.428,-1.96,inactive
Or52e15 (olfactory receptor family 52 subfamily E member 15),2,ambion single siRNA,-3.66,-3.65,-3.68,-1.96,active
Or52e15 (olfactory receptor family 52 subfamily E member 15),3,ambion single siRNA,-1.96,-2.27,-1.65,-1.96,inactive
Or52e15 (olfactory receptor family 52 subfamily E member 15),4,qiagen single siRNA,1.46,1.46,1.46,1.01,inactive
Or52e15 (olfactory receptor family 52 subfamily E member 15),5,qiagen single siRNA,1.14,0.57,1.71,1.01,inactive
Or52e15 (olfactory receptor family 52 subfamily E member 15),6,qiagen single siRNA,-0.398,-0.245,-0.551,1.01,inactive
Rps3 (ribosomal protein S3),1,ambion single siRNA,0.202,0.955,-0.551,-2.18,inactive
Rps3 (ribosomal protein S3),2,ambion single siRNA,-2.53,-1.91,-3.14,-2.18,active
Rps3 (ribosomal protein S3),3,ambion single siRNA,-2.73,-2.44,-3.01,-2.18,active
Rps3 (ribosomal protein S3),4,qiagen single siRNA,0.67,1.26,0.0832,0.567,inactive
Rps3 (ribosomal protein S3),5,qiagen single siRNA,1.93,1.05,2.81,0.567,inactive
Rps3 (ribosomal protein S3),6,qiagen single siRNA,-0.982,-1.07,-0.897,0.567,inactive
S1pr1 (sphingosine-1-phosphate receptor 1),1,ambion single siRNA,-1.17,-0.678,-1.66,-1.66,inactive
S1pr1 (sphingosine-1-phosphate receptor 1),2,ambion single siRNA,-3.72,-3.76,-3.68,-1.66,active
S1pr1 (sphingosine-1-phosphate receptor 1),3,ambion single siRNA,-0.295,-0.295,,-1.66,inactive
S1pr1 (sphingosine-1-phosphate receptor 1),4,qiagen single siRNA,-2.3,-1.21,-3.38,-2.76,active
S1pr1 (sphingosine-1-phosphate receptor 1),5,qiagen single siRNA,0.483,0.483,,-2.76,inactive
S1pr1 (sphingosine-1-phosphate receptor 1),6,qiagen single siRNA,-3.4,-2.76,-4.04,-2.76,active
Ikzf1 (IKAROS family zinc finger 1),1,ambion single siRNA,-2.81,-3.7,-1.92,-3.55,active
Ikzf1 (IKAROS family zinc finger 1),2,ambion single siRNA,-2.67,-3.4,-1.94,-3.55,active
Ikzf1 (IKAROS family zinc finger 1),3,ambion single siRNA,-3.79,-3.76,-3.82,-3.55,active
Ikzf1 (IKAROS family zinc finger 1),4,qiagen single siRNA,0.922,-0.695,2.54,-0.695,inactive
Ikzf1 (IKAROS family zinc finger 1),5,qiagen single siRNA,3.96,3.96,,-0.695,active
Ikzf1 (IKAROS family zinc finger 1),6,qiagen single siRNA,-1.7,-2.17,-1.23,-0.695,inactive
Slc25a28,1,ambion single siRNA,1.58,1.9,1.26,-1.09,inactive
Slc25a28,2,ambion single siRNA,-1.41,-1.18,-1.64,-1.09,inactive
Slc25a28,3,ambion single siRNA,-3.18,-0.997,-5.36,-1.09,active
Slc25a28,4,qiagen single siRNA,1.84,0.225,3.46,-0.327,inactive
Slc25a28,5,qiagen single siRNA,-1.5,-0.879,-2.12,-0.327,inactive
Slc25a28,6,qiagen single siRNA,-1.09,-2.66,0.474,-0.327,inactive
Aqp3 (aquaporin 3),1,ambion single siRNA,-0.0954,0.47,-0.66,-1.55,inactive
Aqp3 (aquaporin 3),2,ambion single siRNA,-1.55,-1.55,-1.55,-1.55,inactive
Aqp3 (aquaporin 3),3,ambion single siRNA,-6.33,-8.01,-4.65,-1.55,active
Aqp3 (aquaporin 3),4,qiagen single siRNA,1.28,0.549,2.01,-1.37,inactive
Aqp3 (aquaporin 3),5,qiagen single siRNA,-1.37,-1.01,-1.73,-1.37,inactive
Aqp3 (aquaporin 3),6,qiagen single siRNA,-3.03,-1.84,-4.22,-1.37,active
Cimip2b (ciliary microtubule inner protein 2B),1,ambion single siRNA,-1.37,-1.74,-0.995,-1.65,inactive
Cimip2b (ciliary microtubule inner protein 2B),2,ambion single siRNA,-1.02,-0.476,-1.56,-1.65,inactive
Cimip2b (ciliary microtubule inner protein 2B),3,ambion single siRNA,-5.37,-4.63,-6.12,-1.65,active
Cimip2b (ciliary microtubule inner protein 2B),4,qiagen single siRNA,1.07,0.968,1.18,-0.147,inactive
Cimip2b (ciliary microtubule inner protein 2B),5,qiagen single siRNA,-4.49,-5.15,-3.84,-0.147,active
Cimip2b (ciliary microtubule inner protein 2B),6,qiagen single siRNA,-0.147,-0.42,0.126,-0.147,inactive
"Itga10 (integrin, alpha 10)",1,qiagen single siRNA,0.314,0.114,0.515,0.476,inactive
"Itga10 (integrin, alpha 10)",2,qiagen single siRNA,3.84,3.84,,0.476,active
"Itga10 (integrin, alpha 10)",3,qiagen single siRNA,-0.748,-1.97,0.476,0.476,inactive
Crisp1 (cysteine-rich secretory protein 1),1,ambion single siRNA,2.24,2.82,1.67,-1.67,active
Crisp1 (cysteine-rich secretory protein 1),2,ambion single siRNA,-2.72,-1.87,-3.56,-1.67,active
Crisp1 (cysteine-rich secretory protein 1),3,ambion single siRNA,-1.83,-2.2,-1.47,-1.67,inactive
Crisp1 (cysteine-rich secretory protein 1),4,qiagen single siRNA,1.91,0.171,3.64,-0.673,inactive
Crisp1 (cysteine-rich secretory protein 1),5,qiagen single siRNA,-0.518,0.48,-1.52,-0.673,inactive
Crisp1 (cysteine-rich secretory protein 1),6,qiagen single siRNA,-2.65,-1.59,-3.7,-0.673,active

7 successive reagents from above, quoted:
gene,siRNA no.,siRNA vendor or control pool,"p65 translocation z-score, replicate mean","p65 translocation z-score, replicate 1","p65 translocation z-score, replicate 2","gene median z-score, per vendor",activity call
Ikzf1 (IKAROS family zinc finger 1),3,ambion single siRNA,-3.79,-3.76,-3.82,-3.55,active
Ikzf1 (IKAROS family zinc finger 1),4,qiagen single siRNA,0.922,-0.695,2.54,-0.695,inactive
Ikzf1 (IKAROS family zinc finger 1),5,qiagen single siRNA,3.96,3.96,,-0.695,active
Ikzf1 (IKAROS family zinc finger 1),6,qiagen single siRNA,-1.7,-2.17,-1.23,-0.695,inactive
Slc25a28,1,ambion single siRNA,1.58,1.9,1.26,-1.09,inactive
Slc25a28,2,ambion single siRNA,-1.41,-1.18,-1.64,-1.09,inactive
Slc25a28,3,ambion single siRNA,-3.18,-0.997,-5.36,-1.09,active
